This note sets out measurements from patent US9421274B2, “Bio-orthogonal drug activation” (Koninklijke Philips N.V., priority 2011, dated 2016).

The series can be described thus: Activation of model prodrugs by tetrazines (release of model drug, HPLC-MS). The following applies: for release of 3,5-dimethylaniline: 20 hr.

Regarding `O=C(NCc1ccccc1)OC1/C=C/CCCCC1` (stereo not drawn) [32 minor isomer, (E)-cyclooct-2-en-1-yl benzylcarbamate], the release of benzylamine entry by setting is: (activator 3,6-bis(2-aminophenyl)-1,2,4,5-tetrazine (9), DMSO-d6/D2O, 20° C., 24 hr) “release of benzylamine”; (activator 3,6-bis(2-pyridinyl)-1,2,4,5-tetrazine (2), acetonitrile/water, 20° C., 24 hr) “release of benzylamine”; (activator 3,6-bis(4-hydroxyphenyl)-1,2,4,5-tetrazine (11), acetonitrile/water, 20° C., 5 hr) “release of benzylamine”; (activator 3,6-diphenyl-1,2,4,5-tetrazine, general procedure) “release of benzylamine”; (activator 6-H-3-(4-aminomethylphenyl)-1,2,4,5-tetrazine, general procedure) “release of benzylamine”; (activator 6-methyl-3-(4-butanamido-2-pyridinyl)-1,2,4,5-tetrazine, general procedure) “release of benzylamine”. Further, the release of benzylamine result reads like this: (activator 6-phenyl-3-(3-aminophenyl)-1,2,4,5-tetrazine, general procedure) “release of benzylamine”; (activator 6-phenyl-3-(4-aminophenyl)-1,2,4,5-tetrazine, general procedure) “release of benzylamine”.
As to `Cc1cc(C)cc(NC(=O)OC2/C=C/CCCCC2)c1` (stereo not drawn) [33 minor isomer, (E)-cyclooct-2-en-1-yl(3,5-dimethylphenyl)carbamate], the “release of 3,5-dimethylaniline” value reads like this: (activator 3,6-bis(2-aminophenyl)-1,2,4,5-tetrazine (9), acetonitrile/PBS, 20° C.) “release of 3,5-dimethylaniline”; (activator 3,6-bis(4-hydroxyphenyl)-1,2,4,5-tetrazine (11), acetonitrile/PBS, 20° C.) “release of 3,5-dimethylaniline”; (activator 3,6-diphenyl-1,2,4,5-tetrazine, acetonitrile/PBS, 20° C.) “release of 3,5-dimethylaniline”; (activator 3-(2-pyridyl)-6-methyl-1,2,4,5-tetrazine (7), PBS, 20° C.) “release of 3,5-dimethylaniline”.
